Values from PubChem BioAssay AID1259254 (NCATS, 2017)
Aim: 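Genome-wide screen for genes that prevent DNA re-replication in cancer cells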 (primary screen). Cells: human HCT116 colorectal cancer cells. Reagents: single siRNA against human genes. Duration: 3 days. Read-out: 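Imaged Hoechst DNA stain sorts each cell into a cycle phase by DNA amount; per plate, G2 fraction set to 0% for non-targeting and 100% for GMNN siRNA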. Reading the numbers: G2 robust z-score and G2 cells, % of GMNN control: higher = more G2 cells, more excess DNA replication. Active means: 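An siRNA counts as active if its G2 robust z-score lies at least 5 MADs above the screen median; here such calls match roughly 38% of GMNN control or more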.
Shown is a random part of about 59,000 deposited reagents. About 1,550 of all reagents (2.6%) were called active. 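G2 share is only a proxy for re-replication; each gene was hit by three separate siRNAs, and active genes were retested.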 The numbers tell different reagents against one gene apart. Not all columns of the deposit are shown. The record does not give: the amount of reagent.

With SMAD9 #1, what does the deposit list?
G2 robust z-score: -0.0672; G2 cells, % of GMNN control: 2.49; Call: inactive

For SMAD9 #2, what does the deposit list?
G2 robust z-score: 1.78; G2 cells, % of GMNN control: 15.5; Call: inactive

What did the screen give for SMAD9 #3?
G2 robust z-score: 1.88; G2 cells, % of GMNN control: 16.2; Call: inactive

What is on record for HECTD2 #1?
G2 robust z-score: -0.16; G2 cells, % of GMNN control: 1.84; Call: inactive

For HECTD2 #2, what was measured?
G2 robust z-score: 0.732; G2 cells, % of GMNN control: 8.12; Call: inactive

For HECTD2 #3, what does the deposit list?
G2 robust z-score: -0.765; G2 cells, % of GMNN control: -2.41; Call: inactive

With EBLN1 #1, how do the results read?
G2 robust z-score: -0.0978; G2 cells, % of GMNN control: 2.28; Call: inactive

With EBLN1 #2, how do the results read?
G2 robust z-score: 2.01; G2 cells, % of GMNN control: 17.1; Call: inactive

What did the screen give for EBLN1 #3?
G2 robust z-score: -0.138; G2 cells, % of GMNN control: 2; Call: inactive

What is on record for POLR3A #1?
G2 robust z-score: -0.253; G2 cells, % of GMNN control: 1.19; Call: inactive

How did the screen score POLR3A #2?
G2 robust z-score: 1.51; G2 cells, % of GMNN control: 13.6; Call: inactive

What did the screen give for POLR3A #3?
G2 robust z-score: 0.15; G2 cells, % of GMNN control: 4.02; Call: inactive

Single entries from above:
POLR3A #2, G2 robust z-score = 1.51
Result for EBLN1 #1 under “G2 cells, % of GMNN control”: 2.28
